# Inconclusive means that the source gave no clear call. Such entries were picked first, then a sample of the others. A potency beside an inconclusive call is a rough fit, not a confirmed value. Active and inactive are the calls of the source. The calls were made as follows: active = hit-call score of the fitted dose curve at least 0.9, where 1 is the maximum; inconclusive = response in the unintended direction; inactive = score below 0.9.
# Tested on: chicken Androgen Receptor (AR), gene 422165
# Experiment: ATG_chAR_XSP1: Attagene TRANS-FACTORIAL Multi-Species (XSP1) HepG2 Assay for chicken Androgen Receptor (AR) (AID 2283768)
# In short: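 Reporter mRNA read by RT-PCR with fluorescent labelling and capillary electrophoresis 24 h after chemical dosing of transiently transfected HepG2 cells. Chicken AR-Gal4 chimera, partially stimulated with 3 nM 6-alpha-fluorotestosterone; activity fitted upward relative to DMSO.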
SMILES,AC50,outcome
COP(=O)(OC)O/C(=C\Cl)c1cc(Cl)c(Cl)cc1Cl,inconclusive: 175 µM,
CCN(CC)C(=O)C(C)Oc1cccc2ccccc12 (stereo unspecified),inconclusive: 56.9 µM,
C=CC1(C)OC(=O)N(c2cc(Cl)cc(Cl)c2)C1=O (stereo unspecified),inconclusive: 2.69 µM,
CC(C)(O)C(=O)Nc1ccc([N+](=O)[O-])c(C(F)(F)F)c1,inconclusive: 1.09 µM,
Clc1ccc(C(c2ccc(Cl)cc2)C(Cl)Cl)cc1,inconclusive: 8.57 µM,
COP(=S)(OC)Oc1ccc([N+](=O)[O-])c(C)c1,inconclusive: 19.8 µM,
CCC[CH2][Sn]([Cl])([CH2]CCC)[CH2]CCC,active: 0.334 µM,
CCCCCOC(=O)c1ccccc1C(=O)OCCCCC,,inactive
CO/C=C(/C(=O)OC)c1ccccc1Oc1cc(Oc2ccccc2C#N)ncn1,,inactive
CCCN(CCOc1c(Cl)cc(Cl)cc1Cl)C(=O)n1ccnc1,inconclusive: 8.1 µM,
CC(=O)c1cc2c(cc1C)C(C)(C)C(C)CC2(C)C (stereo unspecified),inconclusive: 25.7 µM,
ClC(Cl)=C(c1ccc(Cl)cc1)c1ccc(Cl)cc1,inconclusive: 5.36 µM,
O=S1OCC2C(CO1)C1(Cl)C(Cl)=C(Cl)C2(Cl)C1(Cl)Cl (stereo unspecified),inconclusive: 10 µM,
CC(C)CCCCCCCOC(=O)c1ccccc1C(=O)OCCCCCCCC(C)C,,inactive
CC1(C)C(C=C(Cl)Cl)C1C(=O)OC(C#N)c1ccc(F)c(Oc2ccccc2)c1 (stereo unspecified),,inactive
CC1(C)C(C=C(Cl)Cl)C1C(=O)OC(C#N)c1cccc(Oc2ccccc2)c1 (stereo unspecified),,inactive

# Reference: PubChem BioAssay (EPA / NIEHS)
